Measurements published in patent US20210024646A1.
Residue numbers refer to the chain shown, from its start. Results are given in words; binding and its absence hold for the method and conditions named. Some binding calls cover weakened binding; strength is not graded here.

Molecular target: T1, CD73 on the surface of human tumor cells (human) (UniProt P21589)
T1 sequence (looked up): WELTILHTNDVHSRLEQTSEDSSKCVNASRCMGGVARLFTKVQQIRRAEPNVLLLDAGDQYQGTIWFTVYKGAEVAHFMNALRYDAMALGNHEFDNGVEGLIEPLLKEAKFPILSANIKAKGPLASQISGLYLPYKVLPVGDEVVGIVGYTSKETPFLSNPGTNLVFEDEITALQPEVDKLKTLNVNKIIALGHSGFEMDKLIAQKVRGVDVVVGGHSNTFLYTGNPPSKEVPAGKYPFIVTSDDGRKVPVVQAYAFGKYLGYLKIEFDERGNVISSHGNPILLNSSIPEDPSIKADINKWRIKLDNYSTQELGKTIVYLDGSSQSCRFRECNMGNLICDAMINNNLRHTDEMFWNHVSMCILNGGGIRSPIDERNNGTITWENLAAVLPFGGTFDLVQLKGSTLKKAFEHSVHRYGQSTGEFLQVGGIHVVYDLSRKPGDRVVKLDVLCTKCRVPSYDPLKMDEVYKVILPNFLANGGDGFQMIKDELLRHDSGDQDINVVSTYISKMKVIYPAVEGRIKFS
Assay: flow cytometry, MDA-MB-231 cells

B1: mAb002c-VH-QG (antibody, V domains shown)
VH: QVQLQQPGAELVKPGASVRLSCKASGYTLTSYWMHWVKKRPGQGLEWIGEINPSQGRSNYNEKFKSKATLTVDRSSSTVYMQLGSLTSEDSAVYYCARRGVSGNYFDYWGQGTTLTVSS
VL: DIKMTQSPSSMYASLGERVTMTCKASQDINTYLSWFQQKPGKSPKTLIYRSNILVDGVPSRFSGSRSGQDYYLTITSLEYEDMGIYYCLQYDEFPYTFGGGTKLELK
- binding: binds

B2: mAb002c-VH-NA (antibody, V domains shown)
VH: B1 VH with Q55N, G56A
VL: B1 VL
- binding: binds
